Drawing on publication PMC7819943, “Rice protein-binding microarrays: a tool to detect cis-acting elements near promoter regions in rice”, this text covers binding signal for 42 sequences.

The other results are listed elsewhere or left out.

The experiment has as its target T1, OsSMF1 (Oryza sativa, UniProt Q6ZLB0 1-436).
T1 sequence: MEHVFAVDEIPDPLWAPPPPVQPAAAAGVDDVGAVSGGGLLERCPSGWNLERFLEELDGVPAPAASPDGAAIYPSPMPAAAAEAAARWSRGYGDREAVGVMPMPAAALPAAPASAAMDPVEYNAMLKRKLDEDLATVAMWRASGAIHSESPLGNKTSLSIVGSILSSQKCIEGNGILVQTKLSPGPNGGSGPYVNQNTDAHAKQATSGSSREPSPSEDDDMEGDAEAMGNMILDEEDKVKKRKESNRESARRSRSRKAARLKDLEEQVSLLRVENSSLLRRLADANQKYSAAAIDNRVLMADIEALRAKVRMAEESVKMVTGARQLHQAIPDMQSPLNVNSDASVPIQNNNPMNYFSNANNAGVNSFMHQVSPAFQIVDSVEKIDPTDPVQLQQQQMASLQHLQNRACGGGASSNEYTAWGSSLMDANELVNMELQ
Nature of the experiment: protein-binding microarray (RPBM); PBS, 2% BSA, 51.3 ng/ul salmon testes DNA, 50 uM zinc acetate, 200 nM TF, 25 C, 1 h; high values mean tight binding. Particulars: protein: recombinant; tags: N-terminal polyhistidine and DsRed monomer fusion (pET32a); chain copies: 2; label: CyDye5-dUTP incorporated in the synthesized complementary strand; 3' TTTTT single-stranded linker to array surface; dsDNA, one strand shown. In a few lines: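 Binding signal is reported as fluorescence intensity per feature (arbitrary units) from an Axon 4000B scanner. Incubation used 200 nM of each Ni–NTA-purified, N-terminally polyhistidine- and DsRed-fused transcription factor from E. coli BL21-CodonPlus on a double-stranded custom Agilent array for 1 h at 25 °C, with 50 µM zinc acetate in the buffer, followed by washing.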
As for “AAGGACAAATTCAGCCCAACTTGGTAGTGGGCCTCCTTTTCGGAGTCACCTAGTGCAG”, the binding signal is 18000 fluorescence intensity (a.u.).

“GATAATTCTTGGTCATCAGTGCTTCGGCACGGTCAGCCGCCGGAGTCACCTAGTGCAG”: the binding signal is 3190 fluorescence intensity (a.u.).

Take “AGCTCACTCTCTAGCTCCTTGAGGTGCACCCTTAGTTGTTCGGAGTCACCTAGTGCAG”: the binding signal is 23700 fluorescence intensity (a.u.).

On to “GCTGGACGCGTGCCTGCGCCCCGTCGACCACGTCAAGGCGCGGAGTCACCTAGTGCAG”, for which the binding signal is 5050 fluorescence intensity (a.u.). The value for “TGGGCATTTGATGAAAACATGATCACCGAAAATCATTTAGCGGAGTCACCTAGTGCAG” was 4320 fluorescence intensity (a.u.); that for “CGAGTCCAACGTGCCTAGCTCCTATCCAACTTCTTCACCGCGGAGTCACCTAGTGCAG” was 4900 fluorescence intensity (a.u.); that for “TATCTCTCTTTCTCTTTCTTCGTGTCGTCGACTTCGCATGCGGAGTCACCTAGTGCAG” was 3380 fluorescence intensity (a.u.). The value for “TTTCTCCAAAAGCGTTGATGTCGCACGTGAGCCACGTCAGCGGAGTCACCTAGTGCAG” was 34800 fluorescence intensity (a.u.); that for “ATGCGATTCGATATGATCTGTACCGAACACTGTAGCAAGCCGGAGTCACCTAGTGCAG” was 3450 fluorescence intensity (a.u.).

For the sequence “GGTAGTAGTCGTAGTAGTAGACCAGGTGGACGCGTGTCAGCGGAGTCACCTAGTGCAG”, the binding signal was 6350 fluorescence intensity (a.u.). Consider “GCCGCGCGTGATCGATCACGCGTTAGCTTTCTAGCTAGTTCGGAGTCACCTAGTGCAG”, for which the binding signal was 3820 fluorescence intensity (a.u.). With “GTGTGCCTCGAGTGGTGGTGGTACGAGGTGATGATCCTGCCGGAGTCACCTAGTGCAG” the figure was 22700 fluorescence intensity (a.u.); with “AGGCCCATTTAAGCCCACGTTTCTCTTGTCCTCAACCCCACGGAGTCACCTAGTGCAG”, 3220 fluorescence intensity (a.u.); with “TGTAGATTGCTCGTAGGCCATAGTGACGCCAACCCTCGCCCGGAGTCACCTAGTGCAG”, 5120 fluorescence intensity (a.u.).

For the sequence “AAATACTATCTCGCTGAGTAGACTGAGGCACGCGTAGAAACGGAGTCACCTAGTGCAG”, the binding signal is 3870 fluorescence intensity (a.u.).

Take “CCGAGAGGTGGGGTGTGTGTCACTCACGCCGCGCGCTGGGCGGAGTCACCTAGTGCAG”: the binding signal was 4790 fluorescence intensity (a.u.). The value for “TTAACTATTTGCCACCCATATGTCTATGACACGTGGGTCTCGGAGTCACCTAGTGCAG” was 9590 fluorescence intensity (a.u.); that for “ATGTTAGTAAATTCGCGTCGGATTGCTTCTTATCAGAGCCCGGAGTCACCTAGTGCAG” was 3200 fluorescence intensity (a.u.); that for “AATACTGGTCAATAAAATTTCCAAGATCAAAATAAACGTACGGAGTCACCTAGTGCAG” was 25000 fluorescence intensity (a.u.). With “CAGCTGACTTATAGCCTACTATACCTGCTGTACCTGCTGGCGGAGTCACCTAGTGCAG” the figure was 3340 fluorescence intensity (a.u.). With “TATGAATGGAAAGTCTGACCCATATGTTGTACTTTCACTCCGGAGTCACCTAGTGCAG” the figure was 4500 fluorescence intensity (a.u.); with “TGACGACGATCGTCGTCATGTACCCCGGCGCGATCTTGACCGGAGTCACCTAGTGCAG”, 4230 fluorescence intensity (a.u.). With “TCGACCTTTTCAGCATTACTAGTTTACTACCTTTTCTTATCGGAGTCACCTAGTGCAG”, the binding signal is 26900 fluorescence intensity (a.u.).

Turning to “AGGCCATCATCACTTTAGTCTTATTTTCGTCACCATCATCCGGAGTCACCTAGTGCAG”, the binding signal is 3560 fluorescence intensity (a.u.). The value for “CCATATCATATTACTCCTACATGTGTACTACATTTATATTCGGAGTCACCTAGTGCAG” was 3720 fluorescence intensity (a.u.). “TCATGTACCACTTTTGTTATGGTAATGTGTCATGTACCTTCGGAGTCACCTAGTGCAG”: the binding signal is 3680 fluorescence intensity (a.u.). Regarding “TATCATTAAGTGAAAAGTGGCTATAGCCTTGGTCTATTTGCGGAGTCACCTAGTGCAG”, the binding signal was 3750 fluorescence intensity (a.u.). With “TATATATATATATATATATATATATAGTAGCAGTAGCAGTCGGAGTCACCTAGTGCAG”, the binding signal is 3240 fluorescence intensity (a.u.). The value for “CTGTTGGCACTTACACAATCACATTCACATTTGGTGTTTTCGGAGTCACCTAGTGCAG” was 3220 fluorescence intensity (a.u.); that for “CATCCATGACCATGGAATCGGCGTGCCACAAGGTGAGCGGCGGAGTCACCTAGTGCAG” was 3340 fluorescence intensity (a.u.); that for “TGCATAAGGATAATCCGGTCGTCAGCAAACAATGCATTCACGGAGTCACCTAGTGCAG” was 3450 fluorescence intensity (a.u.).

For the sequence “TTCCGCCACATCAGGGAGGACGAGGTGACGGCGCGGGTGGCGGAGTCACCTAGTGCAG”, the binding signal was 3160 fluorescence intensity (a.u.). The value for “CACCTAGCATGCATAGGACGAGGCATTTAATTTTACTTATCGGAGTCACCTAGTGCAG” was 22000 fluorescence intensity (a.u.). For “CCTGTAGCTCTCATGTTGCATGACTGTAACAACATGTGCACGGAGTCACCTAGTGCAG”, the binding signal was 4700 fluorescence intensity (a.u.). Consider “AGTTAAAAGAGCATGAATTAAATAGCATCGATCTGAGGTGCGGAGTCACCTAGTGCAG”, for which the binding signal is 3280 fluorescence intensity (a.u.). The value for “GAAATATAATGCCACAACACAATGTTATACACGTACGAGTCGGAGTCACCTAGTGCAG” was 3530 fluorescence intensity (a.u.). On to “GGATGCCGAGTCAGACACACGGTGGATTTTCATTTTATATCGGAGTCACCTAGTGCAG”, for which the binding signal was 7740 fluorescence intensity (a.u.).

“ACGCACCTGCACATTTGGAACTTGTACTACACGTGTTTCACGGAGTCACCTAGTGCAG”: the binding signal is 5000 fluorescence intensity (a.u.). In the case of “GACTCCTCGGCCACCTCCTTCCGCTGCGCCACCGCCGCCGCGGAGTCACCTAGTGCAG”, the binding signal is 3580 fluorescence intensity (a.u.). With “CCATTCTCGTTTTCCACGGCTCAACCGCTCTCTTCGCTCGCGGAGTCACCTAGTGCAG” the figure was 3370 fluorescence intensity (a.u.).

For the sequence “ACATCCTATCCCGTGCATTGAATCAGCATTGTACAGCAAACGGAGTCACCTAGTGCAG”, the binding signal is 3370 fluorescence intensity (a.u.). Consider “CGCCGACTTCGCGACGCCACGCTGTCTTTGACCGGCTCCGCGGAGTCACCTAGTGCAG”, for which the binding signal is 3880 fluorescence intensity (a.u.).
